Patent US11590129B2, “Combination therapy with an antitumor alkaloid” (PHARMA MAR, S.A., priority 2010, dated 2023)

Test system: MDA-MB-231 human breast adenocarcinoma cell line
Assay: cells
Settings: MDA-MB-231, 72 h
Protocol: a. […] Briefly, cells were harvested and seeded in 96 well microtiter plates at a density of 5,000 cells in 150 μL of culture medium and incubated for 24 hours in drug-free medium before treatment with vehicle alone or test compounds for 72 h.
The cytotoxic effect was measured by the MTT reduction assay, in which 3-(4,5-Dimethylthiazol-2-yl)-2,5-diphenyltetrazolium bromide, a tetrazole, which is reduced to purple formazan in the mitochondria of living cells, was used. MTT (50 μL of 1 mg/mL stock solution) was added to the wells and incubated for 8 hours at 37° C. until formazan crystals were formed. After gently removing the culture medium, DMSO was added to dissolve the insoluble purple formazan product into a colored solution. […] Results were expressed as percentage of control cell growth.
b. In a second set of assays, A549 human tumor cells were incubated with PM01183 in combination with each of the agents mentioned above.
As a visual aid, response values were plotted on a scatter plot with dose ratios given on the x-axis and % response values on the y-axis. […] In cases where response values at the two endpoints were approximately equivalent, points lying above or below this predicted line of additivity could be interpreted as representing antagonistic or synergistic drug interaction, respectively. […]

## CC/C(=C(\c1ccccc1)c1ccc(OCCN(C)C)cc1)c1ccccc1 [Tamoxifen, tamoxifen]
  IC50: 13 µM
